About 1,200 (0.92%) of roughly 130,000 compounds were called active. This list was built around the results that the source calls inconclusive (neither active nor inactive); the mix of calls is not that of the screen.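 The calls were made as follows: active = inhibition above the mean plus 3 SD, with well images judged a real hit on visual review (cut at about 60% in these data, passing the limit was not always enough); inconclusive = inhibition over the cutoff but images rejected on review; inactive = inhibition not above the cutoff.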
test: inhibitors of insulin promoter-driven GFP, primary screen, imaging, TRM-6 cells (human fetal islet line), eGFP reporter, cell count (AID 1273); settings: at 2 µM, stronger effect = higher value, reporter expression induced with tamoxifen

SMILES	inhibition
CC(=O)Nc1ccc(S(=O)(=O)Nc2nc3ccccc3nc2N2CCCCCC2)cc1	inactive: 30.2%
CCNc1nc(Oc2ccc(=O)[nH]n2)nc(N2CCOCC2)n1	active: 75%
Cc1ccc2c(n1)CC(C)(C)C/C2=N\O	active: 90.5%
COc1ccc(S(=O)(=O)N2CCc3ccccc32)cc1C(=O)OCc1nnc(-c2ccccc2)o1	inconclusive: 71.4%
COc1ccc(/C=C/C(=O)Nc2ccc(OC)nc2)cc1	inactive: 42.9%
COC(=O)c1ccccc1NC(=O)C/C(C)=N/NC(=O)CC#N	active: 71.4%
COc1ccc(CCNC(=O)CCc2ccc(S(=O)(=O)NC(C)C)cc2)cc1	active: 71.4%
CCN(CC)CCn1c(=N)n(CCOc2ccccc2)c2ccccc21	inactive: -46.7%
Cc1ccc2c(c1)N(CC(=O)NC1CCCc3ccccc31)C(=O)CO2 (stereo not given)	inconclusive: 76.9%
O=S(=O)(c1ccc(F)cc1)c1nc(-c2ccco2)oc1Nc1ccccc1	inactive: -52%
CSc1nsc(SC)c1C(=O)N1CCN(S(=O)(=O)c2ccc(C)cc2)C1C (stereo not given)	inactive: -125%
C/C(Cl)=C\Cn1c(=O)c2c(nc3n2CCS3)n(C)c1=O	inconclusive: 71.4%
Cc1c(C(=O)OCC(=O)NCCN2C(=O)CSC2=O)oc2c1ccc1ccccc12	inactive: -3.33%
CCc1nc(Nc2ccc3c(c2)OCCO3)c2oc3ccccc3c2n1	active: 85.7%
COc1ccc(CNC(=O)CN(CCC(C)C)S(=O)(=O)c2ccc3c(c2)OCCO3)cc1	inactive: 35.7%
O=C(O)c1ccc2c(c1)C(=O)N(C(Cc1ccc(O)cc1)C(=O)O)C2=O (stereo not given)	inconclusive: 81.8%
CCCCN=c1sc(C(=O)OC)cc(=O)n1CCCC	inconclusive: 72.7%
O=C(Nc1ccc2c(c1)CCC2)C1CCCO1 (stereo not given)	inconclusive: 79.3%
CCCc1cc(-c2n[nH]c(=S)n2CC)cs1	inconclusive: 80%
CCOc1ncccc1C(=O)N1CCN(C(=O)c2ccccc2)CC1	inactive: 36.6%

Taken from the entries so far, two compounds:
SMILES	inhibition
O=C(Nc1ccc2c(c1)CCC2)C1CCCO1 (stereo not given)	inconclusive: 79.3%
CCCc1cc(-c2n[nH]c(=S)n2CC)cs1	inconclusive: 80%

Next records

SMILES	inhibition
Cc1c(C(=O)Nc2ccc(Cl)cc2)c2ccccn2c1C(=O)c1ccc(F)cc1	inactive: 25.4%
Cc1nc(NC2=NCN(CC3CCCO3)CN2)nc2ccccc12 (stereo not given)	inactive: 17.1%
O=C(CSCc1ccc(Cl)cc1)Nc1cccc(C(=O)Nc2ccccc2C(=O)O)c1	inconclusive: 80%
CCn1c2ccccc2c2cc(/C=N/NC(=O)c3ccc(O)cc3)ccc21	inactive: -35.3%
O=C(CCC(=O)NNC(=O)Cc1ccccc1)NCc1ccccc1	inconclusive: 73.3%
Cc1cc(C)cc(OCC(=O)N2N=C(C(F)(F)F)CC2(O)C(C)(C)C)c1 (stereo not given)	inconclusive: 77.1%
O=C(Nc1nnc(-c2cccs2)s1)C1CC1	inconclusive: 80%
COc1ccc(CNC(=O)CN2CCN(S(=O)(=O)c3cccs3)CC2)cc1OC	inactive: -21.4%
COc1ccc(CC(=O)Nc2ccc(C(=O)Nc3ccccc3C(=O)O)cc2)cc1OC	inactive: 34.6%
CC(C)CSc1nsc(N)n1	active: 85.7%
CCCC12CN3CCN(CC(C3)/C1=N\NC(=O)Nc1ccccc1)C2	inconclusive: 100%
CCCNC(=O)OCCC12CC3CC(CC(C3)C1)C2	active: 69.2%
O=C(Nc1cccc(F)c1)c1ccc(-c2ccccc2Cl)o1	inconclusive: 71.4%
CCOC(=O)c1cnc2c(ccc3ccccc32)c1NCCO	inconclusive: 76.9%
CCN(CC)C(=O)Nc1ccc(C(=O)OC)cc1	active: 83.3%
C/C(=N\Nc1cc(C(F)(F)F)ccc1Cl)c1ccccc1O	inconclusive: 60%
COc1ccc(CCNc2oc(Cc3cccc4ccccc34)nc2C#N)cc1OC	inconclusive: 75.9% [cytotoxic]
CCN(CC)CCCNC(=O)c1nn(-c2ccc(OC)cc2OC)c(=O)c2ccccc12	inconclusive: 0.39%
O=C(O)c1ccc2nc(-c3ccccc3)sc2c1	inactive: 0%
COC(=O)Cc1[nH]n(-c2nc3ccccc3s2)c(=O)c1C(C)=Nc1ccc(C)cc1	inconclusive: 78.6%

SMILES	inhibition
CC1CCCCC1NC(=O)COC(=O)COc1ccccc1Cl (stereo not given)	inactive: -100%
CCOc1ccc(CCN2C(=O)c3cccnc3C2=O)cc1OCC	active: 68.4%
Cc1ccc(S(=O)(=O)N(CC(=O)O)c2ccc(Cl)c(C(F)(F)F)c2)cc1	inconclusive: 75%
O=C(Nc1ccccc1)N1CC=C(c2ccc(F)cc2)CC1	inconclusive: 75%
COc1cc(C(=O)c2ccccc2)c(OC)cc1C(=O)Nc1ccc(O)cc1	inconclusive: 71.4%
CCn1c(C)nc2cc(C(=O)N/N=C/c3ccc(O)cc3)ccc21	inconclusive: 66.7%
Cc1cccc(C(=O)NC(=S)N2CCN(C(=S)NC(=O)c3cccc(C)c3)CC2)c1	inactive: 13.5%
CC(=O)Nc1ccc(NC(=O)COC(=O)c2c(C)nn(-c3ccccc3)c2C)cc1	inactive: -22.2%
COc1ccccc1NC(=O)c1ccc(NC(=O)CN2CCCC2)cc1	inactive: 25%
COc1ccccc1-c1nnc(SCC(=O)c2ccc(C3CCCCC3)cc2)n1Cc1ccco1	inactive: 69.2%
CCSc1nnc(NC(=O)C(C)(C)C)s1	active: 77.4%
CNC(=O)CN(C#N)c1nc(N(C)C)nc(N(C)C)n1	inconclusive: 76.2%
Cc1c(Cl)cccc1Nc1nc(N)nc(CN2CCc3ccccc3C2)n1	inactive: 14.8%
CCC(C)Sc1nc2ccccc2c(=O)[nH]1 (stereo not given)	inconclusive: 75%
COC(=O)NC(=S)Nc1ccc(Oc2ccc(Cl)cc2Cl)c(Cl)c1	inactive: -36.8%
CCC(=O)NC(=S)NNC(=O)c1ccc(NC(=O)c2ccccc2)cc1	inactive: 22.2%
COc1cc(OC)nc(Oc2ccccc2C(=O)Oc2cccc(C)c2)n1	inactive: -29.7%
CCc1nc2c(cnn2-c2ccc(Cl)cc2)c(=O)n1-c1ccc(OC)cc1	inconclusive: 71.4%
O=c1cc(O)c2sc3nc(-c4ccccc4)cc(C(F)(F)F)c3c2[nH]1	inactive: 34.4%
c1ccc(-c2nc(-c3ccccn3)no2)cc1	inconclusive: 75%

Gathered by group, the compounds so far with a cyano group (3)
SMILES	inhibition
COC(=O)c1ccccc1NC(=O)C/C(C)=N/NC(=O)CC#N	active: 71.4%
COc1ccc(CCNc2oc(Cc3cccc4ccccc34)nc2C#N)cc1OC	inconclusive: 75.9% [cytotoxic]
CNC(=O)CN(C#N)c1nc(N(C)C)nc(N(C)C)n1	inconclusive: 76.2%
